Source: PubChem BioAssay AID686937 (Drosophila RNAi Screening Center, 2013)
The deposit covers about 23,000 reagents; shown is a random part of those that have a named target and a result. 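Reduced-secretion tags in replicate 1 do not always agree with the z-scores; no criterion for assigning the tags was given.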 Not stated in the record: the amount of reagent.

Purpose: 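Genes whose loss weakens secretory pathway function in fly cells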 (primary screen)
System: Drosophila S2 cells expressing secreted horseradish peroxidase
Reagent: long dsRNA against Drosophila genes
Duration: about 5.5 days (5 days dsRNA, then 12 h reporter induction)
Challenge: reporter expression induced after 5 days of dsRNA, read 12 h later; inducer not stated
Read-out: 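Chemiluminescent measurement of peroxidase in the medium 12 h after reporter induction, following 5 days of dsRNA, given as a z-score per plate; higher means more secretion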
Direction: z-score: higher = more reporter secreted into medium

gene knocked down	DRSC id	z-score, replicate 1	z-score, replicate 2	z-score, replicate 3	z-score, replicate 4
CG34326 (retired record)	DRSC19165	0.1	-0.2		
CG15021	DRSC08475	0.2	0.39	0.64	0.33
alpha4GT1 (alpha1,4-galactosyltransferase 1)	DRSC00488	0.29	0.36		
tej (tejas)	DRSC07219	0.21	0.22		
Jhe (Juvenile hormone esterase)	DRSC07174	0.3	0.16		
Dhc16F (Dynein heavy chain at 16F)	DRSC20242	-0.02	0.09		
CG13078	DRSC02182	0.36	0.3		
CadN (Cadherin-N)	DRSC03286	0.16	0.25		
Alg1 (ALG1, chitobiosyldiphosphodolichol beta-mannosyltransferase)	DRSC15297	0.18	0		
twz (tiwaz)	DRSC04069	0.18	0.25		
CG11368	DRSC17778	-0.11	-0.42		

Next part (4 carried over from the part before).
gene knocked down	DRSC id	z-score, replicate 1	z-score, replicate 2	z-score, replicate 3	z-score, replicate 4
CadN (Cadherin-N)	DRSC03286	0.16	0.25		
Alg1 (ALG1, chitobiosyldiphosphodolichol beta-mannosyltransferase)	DRSC15297	0.18	0		
twz (tiwaz)	DRSC04069	0.18	0.25		
CG11368	DRSC17778	-0.11	-0.42		
CG10163	DRSC09710	0.37	0.31		
COX5BL (Cytochrome c oxidase subunit 5B-like)	DRSC02123	0.08	0.41		
CG42671	DRSC09093	-0.88	0.41		
CG42671	DRSC10321	0.57	0.43		
CG3008	DRSC00560	0.19	0.28		
CG16711	DRSC10220	0.74	0.57		
CG2765	DRSC04315	-0.29	-0.44		
Ada3 (transcriptional Adaptor 3)	DRSC20321	0.09	-0.24		
Ada3 (transcriptional Adaptor 3)	DRSC20322	-0.03	0.23		
CG33468	DRSC22940	-0.91	-0.12		
Srr (Serine racemase)	DRSC16382	0.54	0.44		
MCTS1 (Malignant T cell amplified sequence 1)	DRSC18393	0.49	0.52		
Tsen34 (tRNA splicing endonuclease subunit 34)	DRSC22932	0.15	0.15		
ush (u-shaped)	DRSC00843	-0.06	0.06		
CG15646	DRSC19682	0.21	0.44		
CG1941	DRSC06802	0.09	0.26		
Hsdl2 (Hydroxysteroid dehydrogenase like 2)	DRSC15839	0.23	0.32		
Smn (survival motor neuron)	DRSC10223	0.45	0.23		
RabX2	DRSC18234	0.11	0.54	0.26	0.38
FucT6 (alpha1,6-fucosyltransferase)	DRSC19848	-0.62	-0.27		
syd (sunday driver)	DRSC10963	0.45	0.2		
Mzt1 (Mitotic spindle organizing protein 1)	DRSC07979	-0.44	-0.11		
